These results are taken from article PMC4079689, “HIV Treatments Reduce Malaria Liver Stage Burden in a Non-Human Primate Model of Malaria Infection at Clinically Relevant Concentrations In Vivo” (PLoS ONE, 2014).

Where two headings read alike, the source gives them in different places.

For data set [1] the following is noted: Indian origin, rhesus monkey, in vivo, po.
Data set [2] can be described thus: in vivo. The note with it: Indian origin, rhesus monkey, po.
The conditions of data set [3]: human historical data, cited from earlier work.

As to `Cc1cc(NS(=O)(=O)c2ccc(N)cc2)no1` [Sulfamethoxazole], the Cmax is recorded as 57.7 µg/mL in data set [1]; 40–60 ^1 µg/mL in data set [3] (dose 160 mg trimethoprim and 800 mg sulfamethoxazole, ref Patel et al. Clin Pharmacokinet 1980;5:405–423). For the same compound, the AUC(0-t) in data set [2] was determined as 792 µg·h/mL. Also, the Tmax in data set [3] (TMP-SMX, ref Patel et al. 1980, Dudley et al. 1984) is 1 to 4 h. Besides, the “AUC0–24” value in data set [3] (dose 5 mg/kg trimethoprim and 25 mg/kg sulfamethoxazole iv, ref Dudley et al. Antimicrob Agents Chemother 1984;26:811–814) was 1160 ^2 µg*hr/mL.
